Test results as given in PMC7862700.
Only a part is listed here, and it is no random draw. At the low end of the ranking the order means little.

molecular target: T1, FEV (UniProt Q99581); experiment: DAPPL (digital affinity profiling via proximity ligation, sequencing); settings: 10 mM Tris-HCl pH 7.5, 50 mM NaCl, 1 mM DTT, 4% glycerol, room temperature, 30 min; GST-TFs on glutathione beads, 16-mer random dsDNA library, 0.1% …; high values mean tight binding; double strand, one strand shown; scale: fold enrichment (6-mer frequency, TF over GST control)
T1 sequence: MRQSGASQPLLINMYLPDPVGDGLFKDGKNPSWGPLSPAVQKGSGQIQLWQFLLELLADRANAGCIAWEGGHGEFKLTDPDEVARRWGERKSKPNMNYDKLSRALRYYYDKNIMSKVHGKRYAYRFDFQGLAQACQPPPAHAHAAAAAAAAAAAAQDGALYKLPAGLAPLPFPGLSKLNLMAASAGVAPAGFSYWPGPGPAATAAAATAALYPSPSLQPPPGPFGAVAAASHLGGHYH

| Sequence | binding signal |
| --- | --- |
| AGTCTT | 0.883 |
| TATATT | 1.39 |
| ATGAAC | 1.26 |
| TGCGAA | 1.14 |
| CCCAAA | 1.08 |
| TCCACT | 1.54 |
| TTACCT | 1.26 |
| TTGCTC | 1.25 |
| AAGCTT | 1.16 |
| CTTGCT | 1.25 |
| AAATCA | 1.2 |
| TAAGGA | 0.838 |
| TTCGGC | 1 |
| TTTAAC | 1.09 |
| CCCTTG | 1.16 |
| CCCTAT | 1.39 |
| TCAATT | 1.16 |
| CTCTCC | 1.32 |
| AATATT | 1.3 |
| CGGTTT | 1.44 |

| Sequence | binding signal |
| --- | --- |
| TGCTCC | 1.38 |
| TCACTA | 1.11 |
| TTCCGC | 3.1 |
| TAAGCC | 1.15 |
| CTACGC | 1.62 |
| TACCCC | 1.07 |
| CCCCCT | 1.18 |
| GCCCTA | 1.28 |
| AGCTCT | 1.19 |
| ATTACT | 1.27 |
| ACGTAT | 1.2 |
| CGGATC | 0.991 |
| CGTTTT | 1.19 |
| TTCCGA | 1.81 |
| TTGCGA | 1.08 |
| CCCTTC | 1.47 |
| TCTCGT | 1.21 |
| CTATTT | 1.68 |
| TTGGTA | 1.17 |
| CCCCAA | 1.16 |

As a working copy, some entries already given.

| Sequence | binding signal |
| --- | --- |
| TAAGCC | 1.15 |
| CTACGC | 1.62 |
| TACCCC | 1.07 |
| CCCCCT | 1.18 |
| GCCCTA | 1.28 |
| AGCTCT | 1.19 |
| ATTACT | 1.27 |
| ACGTAT | 1.2 |
| CGGATC | 0.991 |
| CGTTTT | 1.19 |
